From patent EP1262190A1 (Takeda Chemical Industries, Ltd., priority 2000, dated 2001)

Assay: Boc solid-phase peptide synthesis; p-methyl BHA resin; HOBt/DCC
Conditions: whole synthesis

| Substance | isolated mass (scale 0.25 g resin) | isolated mass (scale 0.23 g resin) |
| --- | --- | --- |
| MPHSFANLPLRF-NH2 | 26 mg |  |
| SAGATANLPRS-NH2 |  | 71 mg |

Where no end group is shown, it is not given here.
